The values that follow come from PMC4080450 (eLife, 2014).

The chains behind the UniProt entries cited, without tags or fusion partners. Where a name states a change or a piece, a line headed by the entry shows the natural chain unless it says otherwise.
UniProt Q8NG31: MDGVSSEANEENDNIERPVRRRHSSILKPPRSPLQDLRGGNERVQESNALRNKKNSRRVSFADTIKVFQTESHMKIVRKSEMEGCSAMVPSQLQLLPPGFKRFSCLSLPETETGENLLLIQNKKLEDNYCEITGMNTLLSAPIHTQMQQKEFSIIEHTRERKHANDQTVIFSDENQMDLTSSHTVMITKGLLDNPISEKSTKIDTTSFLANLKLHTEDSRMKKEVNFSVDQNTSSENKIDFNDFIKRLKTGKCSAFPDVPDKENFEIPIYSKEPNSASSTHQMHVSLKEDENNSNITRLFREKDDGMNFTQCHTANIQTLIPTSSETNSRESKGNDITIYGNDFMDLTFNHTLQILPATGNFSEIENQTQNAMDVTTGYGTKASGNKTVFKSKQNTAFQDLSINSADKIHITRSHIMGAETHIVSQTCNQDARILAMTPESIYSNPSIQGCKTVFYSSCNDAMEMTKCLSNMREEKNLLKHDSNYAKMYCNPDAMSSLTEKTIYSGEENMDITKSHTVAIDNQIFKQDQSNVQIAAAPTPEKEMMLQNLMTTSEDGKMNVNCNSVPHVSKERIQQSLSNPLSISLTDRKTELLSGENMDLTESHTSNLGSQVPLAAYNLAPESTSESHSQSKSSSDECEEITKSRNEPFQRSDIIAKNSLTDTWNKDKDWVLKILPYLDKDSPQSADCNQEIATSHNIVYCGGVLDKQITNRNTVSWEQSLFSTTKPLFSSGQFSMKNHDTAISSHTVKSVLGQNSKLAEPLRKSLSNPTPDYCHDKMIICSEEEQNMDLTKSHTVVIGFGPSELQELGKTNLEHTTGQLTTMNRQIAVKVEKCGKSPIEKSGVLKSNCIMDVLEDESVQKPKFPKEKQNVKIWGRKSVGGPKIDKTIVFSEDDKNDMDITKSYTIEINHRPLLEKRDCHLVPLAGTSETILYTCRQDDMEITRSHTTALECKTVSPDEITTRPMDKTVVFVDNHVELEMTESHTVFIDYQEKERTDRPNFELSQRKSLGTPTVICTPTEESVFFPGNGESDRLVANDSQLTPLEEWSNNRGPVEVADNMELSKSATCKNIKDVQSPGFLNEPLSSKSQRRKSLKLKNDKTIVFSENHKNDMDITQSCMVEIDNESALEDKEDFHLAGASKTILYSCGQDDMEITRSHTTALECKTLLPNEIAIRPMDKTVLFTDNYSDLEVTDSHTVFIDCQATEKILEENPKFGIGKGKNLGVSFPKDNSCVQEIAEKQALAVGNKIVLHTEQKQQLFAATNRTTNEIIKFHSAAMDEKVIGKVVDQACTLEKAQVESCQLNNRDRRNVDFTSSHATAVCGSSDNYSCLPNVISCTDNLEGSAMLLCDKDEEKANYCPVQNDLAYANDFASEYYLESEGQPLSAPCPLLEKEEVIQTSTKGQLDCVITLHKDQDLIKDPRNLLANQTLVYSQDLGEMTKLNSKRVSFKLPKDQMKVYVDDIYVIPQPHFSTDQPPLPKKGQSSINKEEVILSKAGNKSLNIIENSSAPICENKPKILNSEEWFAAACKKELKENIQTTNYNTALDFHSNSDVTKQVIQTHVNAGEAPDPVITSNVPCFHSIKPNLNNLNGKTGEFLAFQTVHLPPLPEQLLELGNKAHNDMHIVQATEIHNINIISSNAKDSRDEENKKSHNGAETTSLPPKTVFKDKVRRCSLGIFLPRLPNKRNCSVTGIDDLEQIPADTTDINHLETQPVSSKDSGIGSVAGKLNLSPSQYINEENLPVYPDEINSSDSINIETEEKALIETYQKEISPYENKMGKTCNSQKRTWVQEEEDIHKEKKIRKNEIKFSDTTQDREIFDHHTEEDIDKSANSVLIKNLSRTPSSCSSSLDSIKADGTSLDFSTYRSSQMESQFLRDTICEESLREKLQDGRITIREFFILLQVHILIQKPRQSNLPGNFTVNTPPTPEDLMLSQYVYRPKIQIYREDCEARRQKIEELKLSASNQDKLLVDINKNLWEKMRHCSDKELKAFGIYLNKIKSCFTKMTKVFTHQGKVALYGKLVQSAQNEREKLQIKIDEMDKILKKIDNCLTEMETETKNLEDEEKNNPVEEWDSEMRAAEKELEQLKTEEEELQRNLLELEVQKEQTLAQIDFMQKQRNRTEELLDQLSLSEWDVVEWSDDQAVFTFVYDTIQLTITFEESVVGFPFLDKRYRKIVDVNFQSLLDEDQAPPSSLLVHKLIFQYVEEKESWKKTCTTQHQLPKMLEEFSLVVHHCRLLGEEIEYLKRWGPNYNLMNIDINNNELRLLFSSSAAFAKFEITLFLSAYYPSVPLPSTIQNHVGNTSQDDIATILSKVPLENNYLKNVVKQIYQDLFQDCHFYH
UniProt Q9NSP4: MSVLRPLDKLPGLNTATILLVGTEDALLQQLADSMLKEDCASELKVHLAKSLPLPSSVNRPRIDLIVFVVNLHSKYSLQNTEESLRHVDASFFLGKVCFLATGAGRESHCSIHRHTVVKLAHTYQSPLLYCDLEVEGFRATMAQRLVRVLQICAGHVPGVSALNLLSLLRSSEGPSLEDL

Results are given in words; binding and its absence hold for the method and conditions named.

The target in the assay is Knl1^2000–2311 (UniProt Q8NG31). Put plainly: SEC; analytical SEC co-elution (Superdex200 5/150 or Superose6 5/150), 4°C; proteins mixed in 50 µl, at least 2 hr on ice; SEC buffer with 150 mM NaCl; both purified. A general note: Size exclusion chromatography separates by hydrodynamic size, large species first.

As to CENP-M (from UniProt Q9NSP4 1-180), the binding result is reported as “no binding”.
